Three molecules from PMC2253627 can be followed below.

Protein sequences, listed by entry. Tags and fused reporters are not part of them.
UniProt O88751: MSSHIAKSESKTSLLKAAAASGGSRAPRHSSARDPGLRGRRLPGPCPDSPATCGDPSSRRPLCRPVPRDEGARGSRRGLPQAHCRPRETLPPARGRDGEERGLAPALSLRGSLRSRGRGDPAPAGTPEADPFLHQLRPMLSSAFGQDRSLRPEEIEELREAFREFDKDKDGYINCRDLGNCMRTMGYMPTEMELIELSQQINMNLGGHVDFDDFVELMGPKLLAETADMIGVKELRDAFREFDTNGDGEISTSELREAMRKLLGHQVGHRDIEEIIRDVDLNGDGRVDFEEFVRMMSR

These are yes or no findings as the source states them, for the method shown. For part of these data: In cells and extracts the contact can be indirect. For part of these data: A result given as binding can be weak or reduced; the word gives no strength. For part of these data: Sequences can lack the tags named with a protein.

Assay [1] addresses T1, Jacob (endogenous, rat brain) (rat (endogenous in rat brain)) (UniProt Q9EPI6).
T1 sequence: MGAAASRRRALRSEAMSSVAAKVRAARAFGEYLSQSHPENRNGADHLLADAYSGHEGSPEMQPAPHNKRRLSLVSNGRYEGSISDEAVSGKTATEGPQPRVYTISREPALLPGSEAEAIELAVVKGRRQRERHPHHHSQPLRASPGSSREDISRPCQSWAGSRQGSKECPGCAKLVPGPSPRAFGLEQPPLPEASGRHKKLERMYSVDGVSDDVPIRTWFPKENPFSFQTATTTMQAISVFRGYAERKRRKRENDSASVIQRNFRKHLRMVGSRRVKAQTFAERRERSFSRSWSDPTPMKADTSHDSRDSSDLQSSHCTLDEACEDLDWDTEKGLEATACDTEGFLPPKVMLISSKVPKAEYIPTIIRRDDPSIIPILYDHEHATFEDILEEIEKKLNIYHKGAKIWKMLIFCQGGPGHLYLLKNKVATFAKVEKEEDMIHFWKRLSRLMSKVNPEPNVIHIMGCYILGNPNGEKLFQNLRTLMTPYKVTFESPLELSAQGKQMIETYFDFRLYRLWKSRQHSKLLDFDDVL
The experiment in a line: co-IP; soluble rat brain protein fraction (rat cortex), Jacob antibody JB-150 coupled to Protein-A sepharose; blot for Importin-α1.

For assay [2], the target named is Caldendrin (entire open reading frame, yeast two-hybrid bait in pAS2-1) (UniProt O88751). Description: two-hybrid; yeast; Caldendrin bait in pAS2-1, rat brain cDNA library in pACT2; deletion and point mutation constructs cotransformed; β-galactosidase colony lift assay scored by time to blue colonies (1 h, 3 h, 6 h).
For another assay, the target named is GST-Importin-α1. Description: pull-down; GST-Importin-α1 pull-down of myc/his-tagged Jacob extracted from transfected HEK-293 cells; only the target purified.

As for Importin-α1 (endogenous, rat brain), the binding result in assay [1] is reported as “binds”.

As to “Jacob F241E (yeast two-hybrid construct) (from UniProt Q9EPI6)”, in assay [2], the binding entry is “no binding”.

B1: myc/his-tagged ΔNLS-Jacob (protein, UniProt Q9EPI6)
chain: MGAAASRRRALRSEAMSSVAAKVRAARAFGEYLSQSHPENRNGADHLLADAYSGHEGSPEMQPAPHNKRRLSLVSNGRYEGSISDEAVSGKTATEGPQPRVYTISREPALLPGSEAEAIELAVVKGRRQRERHPHHHSQPLRASPGSSREDISRPCQSWAGSRQGSKECPGCAKLVPGPSPRAFGLEQPPLPEASGRHKKLERMYSVDGVSDDVPIRTWFPKENPFSFQTATTTMQAISVFRGYAEENDSASVIQRNFRKHLRMVGSRRVKAQTFAERRERSFSRSWSDPTPMKADTSHDSRDSSDLQSSHCTLDEACEDLDWDTEKGLEATACDTEGFLPPKVMLISSKVPKAEYIPTIIRRDDPSIIPILYDHEHATFEDILEEIEKKLNIYHKGAKIWKMLIFCQGGPGHLYLLKNKVATFAKVEKEEDMIHFWKRLSRLMSKVNPEPNVIHIMGCYILGNPNGEKLFQNLRTLMTPYKVTFESPLELSAQGKQMIETYFDFRLYRLWKSRQHSKLLDFDDVL
Consider B1, for which the binding entry in the assay with GST-Importin-α1 was “no binding”.
